Read-outs that look alike come from different tables or passages of the source. Marks after values point to notes of the source that are not given here.
Legend:
[1] = tested on: 11β-deoxycorticosterone (DOC); conditions: mean ± SEM
Description: The diet consisted of 70-80 mEq/day of sodium and 80-90 mEq/day of potassium. Blood samples were obtained daily at the time points indicated in the accompanying Tables for measurements of aldosterone, 11β-deoxycorticosterone (DOC), and potassium (K^+). All of the blood samples were obtained while the subjects were seated in a resting state.
DOC was quantified by an LC-MS/MS methodology. In preparation the steroids were extracted using the Absolute/DQStereo17 Kit from Biocrates Life Sciences AG, Innsbruck, Austria. The steroids were extracted and subjected to LC-MS/MS analysis according to the manufacturer's instructions. The triple quadrupole mass spectrometer (Waters 1-Class 2D UPLC Xevo TQ-S was calibrated using the standards provided in the kit. The assays were performed as provided by the manufacturers.

[2] = tested on: CYP11B2; conditions: preclinical studies; cited from earlier work

## N#Cc1ccc([C@H]2CCCc3cncn32)cc1.O=P(O)(O)O [DP13, (R)-(+)-5-(p-cyanophenyl)-5,6,7,8-tetrahydroimidazolium[1,5-a]pyridine dihydrogen phosphate]
[1]; 4 mg once daily, Day 1, 08:00 h, pretreatment
  Plasma 11β-deoxycorticosterone (DOC) concentrations: 0.04 ± 0.01 ng/mL
[1]; 4 mg once daily, Day 2, 08:00 h
  Plasma 11β-deoxycorticosterone (DOC) concentrations: 0.07 ± 0.01 ng/mL
[1]; 4 mg once daily, Day 8, 08:00 h
  Plasma 11β-deoxycorticosterone (DOC) concentrations: 0.14 ± 0.02^c,d ng/mL
[1]; 4 mg once daily, Day 9, 08:00 h
  Plasma 11β-deoxycorticosterone (DOC) concentrations: 0.14 ± 0.02^a,d ng/mL
[1]; 8 mg once daily, Day 1, 08:00 h, pretreatment
  Plasma 11β-deoxycorticosterone (DOC) concentrations: 0.06 ± 0.01 ng/mL
[1]; 8 mg once daily, Day 2, 08:00 h
  Plasma 11β-deoxycorticosterone (DOC) concentrations: 0.13 ± 0.03^b,d ng/mL
[1]; 8 mg once daily, Day 8, 08:00 h
  Plasma 11β-deoxycorticosterone (DOC) concentrations: 0.24 ± 0.03^c,d ng/mL
[1]; 8 mg once daily, Day 9, 08:00 h
  Plasma 11β-deoxycorticosterone (DOC) concentrations: 0.26 ± 0.04^a,d ng/mL
[1]; 16 mg once daily, Day 1, 08:00 h, pretreatment
  Plasma 11β-deoxycorticosterone (DOC) concentrations: 0.05 ± 0.01 ng/mL
[1]; 16 mg once daily, Day 2, 08:00 h
  Plasma 11β-deoxycorticosterone (DOC) concentrations: 0.19 ± 0.05^b,d ng/mL
[1]; 16 mg once daily, Day 8, 08:00 h
  Plasma 11β-deoxycorticosterone (DOC) concentrations: 0.52 ± 0.09^c,d ng/mL
[1]; 16 mg once daily, Day 9, 08:00 h
  Plasma 11β-deoxycorticosterone (DOC) concentrations: 0.48 ± 0.13^a,d ng/mL

## Cl.N#Cc1ccc([C@H]2CCCc3cncn32)cc1 [FAD 286A, (R)-(+)-5-(p-cyanophenyl)-5,6,7,8-tetrahydroimidazolium[1,5-a]pyridine chloride]
[2]
  inhibition of CYP11B2: potent inhibitor of CYP11B2
